Data published in PubChem BioAssay AID652054 (National Center for Advancing Translational Sciences (NCATS), 2013).
In all, about 360,000 compounds went through this assay and about 9,100 (2.5%) were called active. Inconclusive means that the source gave no clear call. Such entries were picked first, then a sample of the others. Rule as the data show it: active = max response below about -50%; inconclusive = no clear call, values can overlap the other calls; inactive = above that.

Protein sequences, listed by entry. Tags and fused reporters are not part of them.
UniProt P35462, whole entry, looked up: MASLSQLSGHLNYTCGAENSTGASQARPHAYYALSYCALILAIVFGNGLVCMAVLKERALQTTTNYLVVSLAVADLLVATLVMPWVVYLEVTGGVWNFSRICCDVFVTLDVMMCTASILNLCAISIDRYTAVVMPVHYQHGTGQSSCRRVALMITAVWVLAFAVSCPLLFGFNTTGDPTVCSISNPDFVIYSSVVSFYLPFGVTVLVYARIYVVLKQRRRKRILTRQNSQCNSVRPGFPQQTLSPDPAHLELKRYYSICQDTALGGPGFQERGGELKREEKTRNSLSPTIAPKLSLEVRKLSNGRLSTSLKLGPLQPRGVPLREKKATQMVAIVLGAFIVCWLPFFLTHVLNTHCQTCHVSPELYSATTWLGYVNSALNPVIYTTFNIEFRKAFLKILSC

What follows are compounds tested against D(3) dopamine receptor (Homo sapiens) (UniProt P35462) (assay: qHTS of D3 Dopamine Receptor Antagonist: qHTS). Conditions: D3R cells, DiscoveRx beta-arrestin luminescence, antagonist mode; active compounds read low.
How it was run: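 Cells expressing the human receptor were seeded at 1500 cells/well, incubated overnight at 37 degrees C in 5% CO2, then exposed to library compounds with dopamine controls for 90 minutes at 37 degrees C before luminescent detection.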
% is scaled to controls: 0 for no effect and ±100 for the full control effect.

| SMILES | max response, negative = inhibition |
| --- | --- |
| O=C(Nc1ccc(F)c([N+](=O)[O-])c1)C(=O)c1c(O)[nH]c2ccccc12 | inconclusive: -37.5% |
| CCOC(=O)c1c(C)nn(-c2ccc(NC(=O)c3c(C)noc3C)cc2)c1C | inactive: 0% |
| Cc1nc2ccc(C(=O)NCCCn3ccnc3)cn2c1N(C)CC1CCCCC1 | inconclusive: -32.8% |
| COc1ccc(-c2nc(CSCC(=O)NCc3ccco3)c(C)o2)cc1 | inactive: 14.3% |
| O=C(CSc1nnc(CNC(=O)c2c(F)cccc2Cl)o1)Nc1ccc2c(c1)OCO2 | inconclusive: -37.1% |
| CCN1CCN(C(=O)c2ccccc2N(Cc2ccccc2)S(=O)(=O)c2ccc(C)cc2)CC1 | active: -52.4% |
| O=C(OCc1ccco1)c1ccc(S(=O)(=O)N2CCCCC2)cc1 | inconclusive: -37% |
| O=c1cc(N2CCCCC2)c(-c2ccccc2)nn1Cc1ccc(Cl)cc1Cl | inconclusive: -34.8% |
| CCCN(CCC)CCCn1c(=O)[nH]c2ccccc21 | inconclusive: -41.8% |
| CCOC(=O)CSc1nnc(CNC(=O)c2ccc([N+](=O)[O-])cc2)n1C | inconclusive: -33.4% |
| CCOC(=O)c1ccc(COc2ccc(C(C)C)cc2)o1 | inactive: 12.5% |
| OCCC1CN(CCCc2ccccc2)CCN1Cc1ccccc1 (stereo not given) | active: -82% |
| COc1ccc(N2CCN(S(=O)(=O)/C=C/c3ccccc3)CC2)cc1 | inactive: -5.89% |
| CCNC(=O)C1(C)CCN(Cc2cccc(Oc3ccccc3)c2)C1 (stereo not given) | inconclusive: -44.3% |
| COc1ccccc1/C=C/[C@@H]1C[C@H]2CN(Cc3cccc(Cl)c3)C(=O)[C@]23CCCN13 | inconclusive: -35.9% |
| Cc1cc2ncc(-c3cccs3)nc2cc1C | inactive: -4.42% |
| CC(=O)NC1(c2cccc(F)c2)CCN(CC(=O)NC(C)C)CC1 | inconclusive: -35.4% |
| c1ccc(Cc2c(C3CCCCC3)nc3c4ccccc4ccn23)cc1 | inconclusive: -30.7% |
| Cc1ccc(S(=O)(=O)Cn2nnnc2C(C(C)C)N2CCN(Cc3ccco3)CC2)cc1 (stereo not given) | active: -58.7% |
| COc1ccc(NS(=O)(=O)c2ccc3ccccc3c2)c2ncccc12 | inconclusive: -46.3% |
| CN1CCN(C(=O)c2ccccc2N(Cc2ccccc2)S(C)(=O)=O)CC1 | inconclusive: -42.8% |
| Cc1cccc(C)c1Cn1c(C)c(C(=O)NCc2ccccc2C(F)(F)F)sc1=O | inconclusive: -47.6% |
| Cc1cc(C(C#N)c2ccccc2)n2ncnc2n1 (stereo not given) | inconclusive: -42.1% |

4 entries from above, field by field:
O=C(Nc1ccc(F)c([N+](=O)[O-])c1)C(=O)c1c(O)[nH]c2ccccc12
  max response, negative = inhibition: inconclusive: -37.5%
CCOC(=O)c1c(C)nn(-c2ccc(NC(=O)c3c(C)noc3C)cc2)c1C
  max response, negative = inhibition: inactive: 0%
Cc1nc2ccc(C(=O)NCCCn3ccnc3)cn2c1N(C)CC1CCCCC1
  max response, negative = inhibition: inconclusive: -32.8%
COc1ccc(-c2nc(CSCC(=O)NCc3ccco3)c(C)o2)cc1
  max response, negative = inhibition: inactive: 14.3%

(more compounds)

| SMILES | max response, negative = inhibition |
| --- | --- |
| CC(C)CCn1nnnc1C(c1ccc(F)cc1)N1CCN(C(=O)c2ccco2)CC1 (stereo not given) | active: -75.8% |
| CCCCN1CC(COCc2ccccc2)Oc2cccc(Oc3ccc(F)cc3)c2S1(=O)=O (stereo not given) | inactive: 24.3% |
| COc1cc(S(=O)(=O)N2CCC(C(N)=O)CC2)c(C)cc1C | active: -104% |
| CCC(C)NCCCOc1ccc(Cl)cc1C(C)(C)C (stereo not given) | active: -68.9% |
| COc1ccc(C[C@H]2CN3C(=NC[C@H]3C)N2CCNC(=O)CCC2CCCCC2)cc1 | active: -71.7% |
| O=C(NC1CCN(Cc2ccccc2)CC1)c1ccc(S(=O)(=O)NCc2ccco2)cc1 | inconclusive: -49.2% |
| COc1ccccc1NC(=O)C1CCN(S(=O)(=O)c2ccc3c(c2)NC(=O)C(C)S3)CC1 (stereo not given) | inactive: 2.92% |
| NS(=O)(=O)c1cccc(NC(=O)CSc2nc3ccc(Cl)cc3[nH]2)c1 | inconclusive: -32.3% |
| O=C(N/N=C/c1ccc(Cl)c([N+](=O)[O-])c1)C1CC1 | inactive: -7.99% |
| CCN1CCN(c2ncnc3scc(-c4ccc(C)cc4)c23)CC1 | active: -92.3% |
| Clc1ccc(CNC2CCCC2)c(Cl)c1 | inconclusive: -37.1% |
| CCOc1ccc(N2CC(C(=O)Nc3ccccc3N3CCOCC3)CC2=O)cc1 (stereo not given) | inactive: 8.26% |
| Cc1sc(NC(=S)NC(=O)C(C)(C)C)c(C(N)=O)c1C | inconclusive: -32% |
| CC1(C(=O)NCc2ccccc2)Cc2c(-c3ccccc3)ccnc2O1 (stereo not given) | inconclusive: -46% |
| Cc1nn(C)c(C)c1S(=O)(=O)N(CC(=O)NCCCN1CC(C)CC(C)C1)c1ccc(C(C)C)cc1 (stereo not given) | inconclusive: -44.1% |
| Cc1ccccc1NC(=O)CSc1nnc(-c2ccco2)c(-c2ccco2)n1 | inconclusive: -43.8% |
| OC(COc1cccc(OCC(O)CN2CCCC2)c1)CN1CCCC1 (stereo not given) | inconclusive: -31.7% |
| COc1ccccc1C(=O)N1CCN(CCc2ccccc2)CC1 | inconclusive: -33.2% |
| COc1cc2[nH]c(=S)n(C3CCCC3)c(=O)c2cc1OC | inactive: 35.9% |
| Cc1cccc(NC(=S)NNC(=O)c2ccccc2OC(F)F)c1 | inconclusive: -47.2% |
| COc1ccc(C(=O)N/C(=C\c2ccc(Cl)cc2)C(=O)NCc2ccncc2)cc1 | inactive: -3.76% |
| O=C(COc1cccc2ccccc12)N1c2ccccc2CCc2ccccc21 | inactive: 5.35% |
| Cc1[nH]n2c(=O)c3c(nc2c1-c1cccc2ccccc12)CCC3 | inactive: 36.5% |

| SMILES | max response, negative = inhibition |
| --- | --- |
| COc1ccc(C(=O)N=c2sc3ccccc3n2C)cc1OC | inactive: 16.2% |
| COc1ccc(Cl)c(NC(=O)NCCN2CCN(c3ccccc3)CC2)c1 | inconclusive: -45.6% |
| Cc1cc(NC2=CC(=O)C(=O)c3ccccc32)no1 | inconclusive: -32.1% |
| Cc1cccc(N2CCN(CC(O)COc3ccccc3Cl)CC2)c1 (stereo not given) | active: -75.5% |
| CCOc1cc(C(c2c(C)[nH][nH]c2=O)c2c(C)[nH][nH]c2=O)cc([N+](=O)[O-])c1O | inconclusive: -32.3% |
| O=C(O)c1ccc(/C=N/NC(=O)c2ccc(NS(=O)(=O)c3cccs3)cc2)cc1 | inactive: 9.14% |
| Cc1ccccc1CN1CCN(Cc2ccc3cccc(F)c3n2)CC1CCO (stereo not given) | inconclusive: -48% |
| COc1cc2c(cc1OC)CN(Cc1cccs1)CC2 | active: -54.2% |
| Nc1c(C(=O)Nc2ccccc2)sc2nc(-c3ccco3)ccc12 | inactive: -9.02% |
| COc1ccc(C(=O)N/C(=C/c2cccc3ccccc23)C(=O)NCCc2c[nH]c3ccccc23)cc1OC | inactive: -6.38% |
| Cc1cc(/C=N/NC(=O)CC2(C)OCCO2)c(C)n1-c1ccc(Cl)c(Cl)c1 | inconclusive: -32.9% |
| Fc1ccc(C2=CC(c3ccc(Br)o3)n3ncnc3N2)cc1 (stereo not given) | inactive: 11.4% |
| O=C(c1sc2ccccc2c1Cl)N(Cc1ccccc1)C1CCS(=O)(=O)C1 (stereo not given) | inactive: 29% |
| Clc1ncnc2scc(-c3ccc(Br)cc3)c12 | active: -54.1% |
| CC(C)(C)C(=O)CN1CCN(S(=O)(=O)c2ccc(F)cc2)CC1 | inconclusive: -39.9% |
| COc1ccc(N2CCN(Cc3cc4c(cc3O)CCC4)CC2)cc1 | active: -87.3% |
| Oc1ccc(C(=S)N2CCCCC2)cc1Cl | inconclusive: -39.7% |
| CCCN1CCN(C2CCCCC2NS(=O)(=O)c2ccc(Cl)cc2)CC1 (stereo not given) | inconclusive: -45.7% |
| N#CC1=C(SCC(=O)Nc2ccccc2)NC(=O)CC1c1ccc(O)cc1 (stereo not given) | inconclusive: -37.2% |
| O=C(O)C1CC=CCC1C(=O)Nc1ccc(N2CCN(Cc3ccccc3)CC2)cc1 (stereo not given) | inconclusive: -38.8% |
| COc1ccc(C(CNC(=O)Cc2ccccc2F)N2CCCCC2)cc1 (stereo not given) | inconclusive: -48% |
| COC(=O)C(C(=O)OC)c1ncc(C(F)(F)F)cc1Cl | inactive: 1.11% |
| O=C(CN1C(=O)NC2(CCOc3ccccc32)C1=O)c1ccc(Br)cc1 (stereo not given) | inconclusive: -35.8% |

| SMILES | max response, negative = inhibition |
| --- | --- |
| O=C(Nc1cccc2ccccc12)N1CC=C(c2ccccc2)CC1 | inconclusive: -41.9% |
| Nc1ccc(-c2c3ccc(=O)cc-3oc3cc(O)ccc23)c(C(=O)O)c1 | inconclusive: -40.3% |
| CC(C)NC(=S)N/N=C/c1ccc(C(C)(C)C)cc1 | inactive: -19.3% |
| CCCCC1CC1C(=O)Nc1ccc(OC)c(OC)c1 (stereo not given) | inconclusive: -38.4% |
| CC[N+](C)(CC)CC(O)COCC1COc2ccccc2O1 (stereo not given) | inconclusive: -39.1% |
| CCc1nnc(NC(=O)c2ccc(-c3ccccc3F)o2)s1 | inactive: -13.2% |
| Oc1c(C(Nc2ccccn2)c2cccnc2)cc(Cl)c2cccnc12 (stereo not given) | active: -121% |
| CN1CCN(S(=O)(=O)c2cccc(C(=O)Nc3nc(-c4ccccc4)cs3)c2)CC1 | inconclusive: -30.6% |
| CC1CCCN(CCC(=O)Nc2ccc(Br)cc2)C1 (stereo not given) | active: -86.3% |
| COc1ccc(S(=O)(=O)N(CC(=O)NC2CCCC2)c2ccccc2OC)cc1 | inconclusive: -30.3% |
| Cc1cc(NC(=O)COc2ccc([N+](=O)[O-])cc2)no1 | inconclusive: -32.1% |
| CCn1c(CSCc2ccc(C)cc2)nnc1SCC(=O)NCc1ccccc1 | inconclusive: -31% |
| C/C(=N\NC(=O)c1ccc([N+](=O)[O-])cc1)c1cc2ccccc2oc1=O | inconclusive: -33.6% |
| CCc1cc(=O)oc2c(CNCc3c(F)cccc3Cl)c(O)ccc12 | inactive: 4.91% |
| CC1CC(C)(C)NC(=S)N1CCC(=O)Nc1ccc2c(c1)OCCO2 (stereo not given) | inactive: -15.2% |
| CCn1cc([N+](=O)[O-])c(C(=O)N2N=C(c3ccc4ccccc4c3)CC2c2cc(Br)ccc2O)n1 (stereo not given) | active: -61.3% |
| COc1cc2ccnc(C=O)c2cc1OC | inconclusive: -38.8% |
| C=CCNc1nc(NCCCN2CCCC2=O)c2sc(-c3ccccc3)cc2n1 | inactive: -2.12% |
| COC(=O)C[C@H]1c2cc(C(F)(F)F)ccc2S(=O)(=O)N1C1CCCCC1 | inactive: -5.99% |
| COc1ccc(NC(=O)COC(=O)C2CCCN2C(=O)OC(C)(C)C)cc1Cl (stereo not given) | inactive: 0% |
| CCN1CCN(C(=O)CN(C)S(=O)(=O)c2ccc(OC)cc2)CC1 | inconclusive: -42.5% |
